Measurements: article PMC9684570
Results are given in words; binding and its absence hold for the method and conditions named. In cells and extracts the contact can be indirect. Binding calls can cover weak binding; strength is not graded here.

Sequences of proteins named here, by UniProt entry; tags and fusion partners are left off. A change or cut given only in a name is not applied to a line headed by its entry.
UniProt Q13642: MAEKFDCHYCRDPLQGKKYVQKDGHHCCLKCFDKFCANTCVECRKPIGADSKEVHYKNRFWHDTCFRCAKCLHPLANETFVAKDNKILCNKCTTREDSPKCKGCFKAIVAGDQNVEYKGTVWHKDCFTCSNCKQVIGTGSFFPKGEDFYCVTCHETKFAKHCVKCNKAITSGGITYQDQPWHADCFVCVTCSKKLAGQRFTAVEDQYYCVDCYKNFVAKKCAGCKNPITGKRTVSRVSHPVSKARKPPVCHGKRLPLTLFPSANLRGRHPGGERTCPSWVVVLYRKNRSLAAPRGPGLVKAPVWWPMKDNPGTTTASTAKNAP
UniProt P31260: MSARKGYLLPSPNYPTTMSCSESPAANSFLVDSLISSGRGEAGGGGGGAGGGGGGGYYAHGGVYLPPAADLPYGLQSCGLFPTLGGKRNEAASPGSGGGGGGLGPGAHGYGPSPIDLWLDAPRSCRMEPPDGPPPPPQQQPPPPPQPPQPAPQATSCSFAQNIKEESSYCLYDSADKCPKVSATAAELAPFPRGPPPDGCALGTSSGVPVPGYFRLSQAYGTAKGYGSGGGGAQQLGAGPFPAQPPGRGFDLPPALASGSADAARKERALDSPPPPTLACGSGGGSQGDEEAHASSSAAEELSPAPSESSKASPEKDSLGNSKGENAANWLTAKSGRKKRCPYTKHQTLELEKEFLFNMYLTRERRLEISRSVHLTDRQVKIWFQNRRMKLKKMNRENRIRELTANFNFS

Legend:
[1] = biological target: Flag-FHL1 (UniProt Q13642); experiment: co-IP; HEK293T cells cotransfected for 48 h; whole-cell lysate (500 ug) on Myc antibody-conjugated or Flag antibody-conjugated beads overnight at 4 °C; blots with anti-Flag M2 and anti-Myc
[2] = biological target: endogenous HOXA10 (human (endogenous in Ishikawa)) (UniProt P31260); experiment: co-IP; Ishikawa whole-cell lysate (1 mg), anti-HOXA10 immunoprecipitation overnight at 4 °C, Protein A/G PLUS-Sepharose beads; goat IgG as negative control

binding [1] | binding [2] | Substance
binds |  | Myc-HOXA10 (from UniProt P31260 1-410)
 | binds | endogenous FHL1 (from UniProt Q13642-1)
